Measured values published in the supplement of paper PMC12823440, “Inhibitors supercharge kinase turnover through native proteolytic circuits” (Nature, 2025).
Where a name gives a salt, the structure may show the parent alone. Some of the results follow. The calls rarely recur for the same compound in another form.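 Kinases, fused to nanoluciferase, were expressed in K562 cells; luminescence was measured every 4 h from 2 to 18 h as percent of control (DMSO = 100%, positive control = 0%). A time point is decreased if signal falls significantly (2 sigma). Hits were called by the authors by a rule that is not shown; the count of time points alone does not decide it.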

Chains of the proteins cited; added tags and fusions are not shown. Lines headed by an entry give the natural chain unless they say otherwise; changes in a name come on top.
UniProt P50613: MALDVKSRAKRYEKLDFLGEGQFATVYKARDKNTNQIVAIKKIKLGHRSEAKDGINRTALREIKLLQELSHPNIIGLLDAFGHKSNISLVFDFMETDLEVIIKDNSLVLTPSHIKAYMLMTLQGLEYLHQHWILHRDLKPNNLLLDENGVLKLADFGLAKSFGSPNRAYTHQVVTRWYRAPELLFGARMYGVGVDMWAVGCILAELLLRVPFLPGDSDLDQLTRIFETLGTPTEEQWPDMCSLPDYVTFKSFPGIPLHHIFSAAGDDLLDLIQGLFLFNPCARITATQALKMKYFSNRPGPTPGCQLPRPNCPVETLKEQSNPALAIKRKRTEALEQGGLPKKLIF

biological target: CDK7 (UniProt P50613); assay: kinase-Nluc reporter destabilization hit call (1 = scored as downregulated) (binary); higher = compound decreases kinase abundance; conditions: K562; 2-18 h

SMILES	kinase-Nluc reporter destabilization hit call
CC#CC(=O)N[C@H]1CCCN(c2c(F)cc(C(N)=O)c3[nH]c(C)c(C)c23)C1 [Branebrutinib] (10 µM)	inactive: 0
O=C1NC(=NCc2cccs2)S/C1=C\c1ccc2ncccc2c1 (10 µM)	inactive: 0
Cn1c(=O)n(-c2ccc(C(C)(C)C#N)cc2)c2c3cc(-c4cnc5ccccc5c4)ccc3ncc21 [Dactolisib (Tosylate)] (10 µM)	inactive: 0
COC(=O)c1ccc2c(C(=Nc3ccc(N(C)C(=O)CN4CCN(C)CC4)cc3)c3ccccc3)c(O)[nH]c2c1 [Nintedanib] (2.5 µM)	inactive: 0
COc1cc2ncnc(Nc3ccc(O)cc3)c2cc1OC (10 µM)	inactive: 0
O=C(c1ccc(-c2ccc(Cl)cc2)o1)N(Cc1ccccn1)c1ccc(N2CCNCC2)cc1 [MK2-IN-1 (hydrochloride)] (10 µM)	inactive: 0
CN1CCN(S(=O)(=O)c2ccc(-c3cnc(N)c(C(=O)Nc4cccnc4)n3)cc2)CC1 (10 µM)	inactive: 0
CN(C)C[C@@H]1CCn2cc(c3ccccc32)C2=C(C(=O)NC2=O)c2cn(c3ccccc23)CCO1 [Ruboxistaurin (hydrochloride)] (10 µM)	inactive: 0
COc1ccc(Oc2cc(NCCC(F)(F)F)c3ncc(-c4ccc(C(=O)NC5CC5)c(C)c4)n3n2)c(F)c1F (2.5 µM)	inactive: 0
CCCCNc1ncc(-c2ccc(CN3CCOCC3)cn2)c(NC2CCC(O)CC2)n1 (stereo not given) (10 µM)	inactive: 0
O=C(Nc1cc(C(F)(F)F)ccc1N1CCN(Cc2ccccn2)CC1)c1ccc(-c2ccncc2)o1 (10 µM)	inactive: 0
CC(C)(/C=C(\C#N)C(=O)N1CCC[C@@H](n2nc(-c3ccc(Oc4ccccc4)cc3F)c3c(N)ncnc32)C1)N1CCN(C2COC2)CC1 (2.5 µM)	inactive: 0
CNC(=O)c1cccc2cc(Oc3ccnc4cc(OCC5(N)CC5)c(OC)cc34)ccc12 [Lucitanib] (10 µM)	inactive: 0
COc1cc(F)cc([C@@H](CO)NC(=O)[C@@H](C)N2Cc3ccc(-c4nc(NC5CCOCC5)ncc4Cl)cc3C2=O)c1 [ERK1/2 inhibitor 2] (10 µM)	inactive: 0
O=c1cc(-c2ccccc2)oc2c(O)c(O)ccc12 [7,8-Dihydroxyflavone] (10 µM)	inactive: 0
C=CC(=O)N1CC[C@H](n2nc(C#Cc3cc(OC)cc(OC)c3)c3c(N)ncnc32)C1 [Futibatinib] (10 µM)	inactive: 0
O=C1Nc2ccccc2/C1=C/c1ccc(F)cc1 (10 µM)	inactive: 0
CN(C)Cc1ccc(-c2cnn3c(-c4cccc(NC(=O)c5cccc(C(F)(F)F)c5)c4)ccnc23)cc1 (2.5 µM)	inactive: 0
Cc1c[nH]c(/C=C2\C(=O)Nc3ccccc32)c1CCC(=O)O (10 µM)	inactive: 0
CC(C)c1ccc2oc3nc(N)c(C(=O)O)cc3c(=O)c2c1 [Amlexanox] (10 µM)	inactive: 0
NS(=O)(=O)c1ccc(Nc2nc(OCC3CCCCC3)c3[nH]cnc3n2)cc1 (10 µM)	inactive: 0
Cn1nc(C(C)(C)C)cc1NC(=O)Nc1ccc(Oc2ccncc2)cc1 (10 µM)	active: 1
COc1ccc(F)c(F)c1C(=O)c1cnc(NC2CCN(S(C)(=O)=O)CC2)nc1N (2.5 µM)	inactive: 0
COc1cc(C(=O)NC2CCN(C)CC2)ccc1Nc1ncc2c(n1)N(C1CCCC1)CC(F)(F)C(=O)N2C (10 µM)	inactive: 0
CCN1C(=O)N(c2c(F)c(OC)cc(OC)c2F)Cc2cnc3[nH]c(CN4CCOCC4)cc3c21 [Pemigatinib] (10 µM)	inactive: 0
COc1cc(Oc2ccnc3cc(OC)c(OC)cc23)ccc1NC(=O)NC(C)c1nccs1 (stereo not given) (2.5 µM)	inactive: 0
C=CC(=O)N1C[C@H](Nc2ncnc3[nH]ccc23)CC[C@@H]1C [Ritlecitinib] (10 µM)	inactive: 0
CC(C)(C)S(=O)(=O)c1cc2c(Nc3ccc4scnc4c3)ncnc2cc1OCCO (2.5 µM)	inactive: 0
O=C(NOC[C@H](O)CO)c1ccc(F)c(F)c1Nc1ccc(I)cc1F (2.5 µM)	inactive: 0
Cc1cccc([C@@H](CO)NC(=O)[C@@H](C)N2Cc3ccc(-c4nc(NC5CCOCC5)ncc4Cl)cc3C2=O)c1 [ERK1/2 inhibitor 1] (10 µM)	inactive: 0

Part of the list above, set out differently.
COc1ccc(Oc2cc(NCCC(F)(F)F)c3ncc(-c4ccc(C(=O)NC5CC5)c(C)c4)n3n2)c(F)c1F (2.5 µM)
  kinase-Nluc reporter destabilization hit call: inactive: 0
CCCCNc1ncc(-c2ccc(CN3CCOCC3)cn2)c(NC2CCC(O)CC2)n1 (stereo not given) (10 µM)
  kinase-Nluc reporter destabilization hit call: inactive: 0
